This note sets out measurements from patent publication US10344069 (dated 2019).

The data set can be described thus: general procedure: Fmoc solid-phase peptide synthesis; 2-chlorotrityl chloride (CTC) resin; DIC/HOBT. The conditions noted are these: for crude purity (method not given): whole synthesis; for final purity (method not given): purification step.

On to Boc-His (Trt)-Ala-Glu (Otbu)-Gly, for which the “crude purity (method not given)” value was determined as 87.5%.

Take “Fmoc-Ser (tbu)-Tyr (tbu)-Leu-Glu (Otbu)-Gly”: the “crude purity (method not given)” value worked out at 95.2%.

For the substance Liraglutide, for the setting “run 1”, the “final purity (method not given)” value stood at 99.4% and the “crude purity (method not given)” value turned out to be 48%. Under “run 2”, the “final purity (method not given)” value is reported as greater than 99% and the “crude purity (method not given)” value is listed as 50.8%.
